Measured values as given in PubChem BioAssay AID1508600 (Functional Genomics Laboratory (NCATS/FGL), 2020).
In all, about 53,000 sequences went through this assay and about 3,700 (7%) were called active.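 How the source made its calls: active means gene knockdowns whose robust z-score for IL-1 alpha signal is at least 2 or at most -2, so actives lie on both sides; inactive means the rest.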 Some of the results follow.

Test: Components of the Cytosolic LPS Sensing Pathway: Gene Identification via Genome-wide siRNA Screen;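 further: robust z of the log signal after scaling to non-targeting control siRNA wells of the plate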
Details: RAW264.7 macrophages, IL-1a HTRF, actives lie on both sides, screened at 100 nM (by protocol), cells primed 5 h with Pam3CSK4 first
Method in brief: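 Three distinct siRNAs per gene were tested singly at 100 nM in RAW264.7 macrophages. Following Pam3CSK4 priming and 24 hour LipidA transfection, IL-1a secretion was read by HTRF.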

| Sequence | z-score |
| --- | --- |
| GGAUGUGGCAUCCUACCACTT against Bfsp2 | inactive: -0.675 |
| GGCAGAAUCUAAAGACCAATT against Aldh8a1 | inactive: 0.844 |
| GCUUUAUGAGUUCACGGAGTT against Prkab2 | inactive: 1.02 |
| GGAUCGAUCUGACAUCAAATT against Epyc | inactive: -0.31 |
| GGAGAGAUCAUACACUUUGTT against BC048679 | inactive: 0.43 |
| CGAUAAAACAGAACAUAGUTT against Stxbp4 | inactive: 0.551 |
| GGGCUGUUUGUAGCAGAUUTT against Olfr1279 | inactive: -1.12 |
| GGUGGGCACUCUGGUUUUUTT against Eif4e | active: 4.66 |
| GCACAAGACUCUUUCAGUUTT against Lipa | inactive: -0.948 |
| GGCUACGCAGCGAAGAAAATT against Rpl32 | inactive: 1.32 |
| GCUCAUGAUUACUGCCAAUTT against Olfr1305 | inactive: 0.643 |
| GGAUGAUGAAAUUGGAGAUTT against Cct5 | inactive: -0.373 |
| GGACGUGGAAAACCACAGUTT against Nphp4 | inactive: 0.0474 |
| GGAUUCUUACCCAACUUUUTT against Usp49 | inactive: -0.112 |
| GCAAAUGCGACUUUACACATT against Top1 | active: 2.56 |
| CCUACGAGGAUACUUACAATT against Kif18b | active: 2.81 |
| GGACACUGGGCGAAUAGUGTT against Cdkl3 | inactive: -1.2 |
| GGACAGAUGAACUUCAAUGTT against C1galt1 | inactive: -0.411 |
| GCGUACGUGGACUUAACUCTT against Gtf2a2 | inactive: 0.65 |
| GGACCUGUGUGUUCUUUGATT against Amhr2 | inactive: -0.505 |
| GGAGCUUGUUCGAGAUCCATT against Insl5 | inactive: -1.44 |
| GGAGAAAUGAAGAUUGUGGTT against Tmem218 | active: -2.31 |

Copied from the list.
GCUUUAUGAGUUCACGGAGTT against Prkab2 | z-score: inactive: 1.02
GGACAGAUGAACUUCAAUGTT against C1galt1 | z-score: inactive: -0.411
GGACCUGUGUGUUCUUUGATT against Amhr2 | z-score: inactive: -0.505

Next results:

| Sequence | z-score |
| --- | --- |
| GGCACUUCAGAGCAAAUUGTT against Slc16a4 | inactive: -0.571 |
| GCUUAUGAACCUCAGAGGGTT against Tex19.1 | inactive: -0.234 |
| CCACCUACGUCAACACUAATT against Kcnh6 | inactive: -1.8 |
| CGUGGACUAAAAGUUUUCATT against Mmp12 | active: 3.63 |
| GGUACAUUUUAUACUGGAGTT against Zfp277 | inactive: 0.163 |
| GGGAGUAGCUCUAUUCAGATT against 2610044O15Rik8 | inactive: -0.775 |
| GGGACACGAACUCUCCAAUTT against Ywhab | inactive: 0.441 |
| CCUGAUACCCAAAGACUCATT against Dnaic1 | inactive: -1.38 |
| GGAGAUCAUGGAGAAAGGCTT against Nacc1 | inactive: 0.599 |
| GCAAAACUGGCUGUCAGUATT against Rnf24 | inactive: -0.779 |
| CCAAGGAAUGUUGUGUUUATT against Hspa4l | inactive: -0.397 |
| CGUAAUUGAUAAAACGGGATT against Gm4792 | inactive: 0.344 |
| GCGCAAAUACAUUGAGGAUTT against Slc17a7 | inactive: 0.451 |
| GGUUGGUAGUCCUUUAAGATT against Tspyl3 | inactive: 0.332 |
| GCUUUUAGGCCAUUAUCAGTT against Ddx46 | inactive: -1.78 |
| GGAAUAUUGUGCAUCAAAGTT against Dennd1c | inactive: 0.806 |
| GGAGUGUAUGCAGAAGUUUTT against Dnajc24 | inactive: 1.49 |
| GGCAAACGAUAAAGAAAUCTT against Ptp4a2 | inactive: 1.58 |
| GCCCUUUUCAGGGAAAACUTT against Myh8 | inactive: 1.06 |
| GCCCAUUCAAACUAUCUAUTT against Ttk | inactive: -0.493 |
| GGGUUUGUCAUCACUGUCUTT against Bdkrb1 | inactive: -1.4 |
| GGAGAUUCAGAAGAUCCUCTT against Isoc2b | active: 2.49 |

| Sequence | z-score |
| --- | --- |
| GGUUGAAGACUUCUUACUUTT against Cdc25a | inactive: 0.567 |
| GGGAAGCAAUAAGUCGCCUTT against Shc4 | inactive: 0.394 |
| GCUCACACUCUUCAUUAUCTT against Olfr1408 | active: -2.91 |
| GCUACUUCAGUCAAGAACATT against Ints3 | inactive: -0.11 |
| GGAAUUCAGAGACAGACUATT against Fpr-rs4 | inactive: -1.06 |
| GGCAAGAAUUCGUUCAUGUTT against Adap1 | inactive: 0.337 |
| GCUAGACCUCACUGUUUUUTT against Sprr2i | inactive: 1.03 |
| GGACUAUGCCGAUAAUAUCTT against Rab24 | inactive: 0.209 |
| GGAGACUACCAGGACAAUATT against Tmem223 | inactive: 0.00381 |
| GGCCUGACGCAUUAGCAUUTT against Ccdc103 | inactive: 0.232 |
| GGUUCUUCCCACAGAAGACTT against Pggt1b | inactive: 0.176 |
| GGUCCCUCUAGCUACAAAUTT against Efcab8 | inactive: -0.163 |
| GGCUUUCAGGAUAUCAUUUTT against H3c7 | inactive: 0.84 |
| GUGUUCACCUGACUUUCCCTT against Nlrp4g | inactive: -1.55 |
| GCCCAAGUGUACUACCGUGTT against Ece1 | inactive: 1.4 |
| GCUCCUAUUACCAAAUUAATT against Olfr747 | inactive: -0.587 |
| GGAGAGAAAAUCUUCCAUUTT against Pramel6 | inactive: 0.429 |
| CGUCGGUUUCUCCCUGAAATT against Tdpoz5 | inactive: -0.376 |
| GGCAGAAACCCUUCUAUGUTT against Bmp8a | inactive: -1.55 |
| GGGCAUUUCAUAAGCUACATT against 4932435O22Rik | inactive: -0.116 |
| GAAAUAUUACAGCGACUGUTT against Pantr1 | inactive: 0.369 |
| GGCCUUUGAGGUCUACAUATT against Icam2 | inactive: 0.323 |

Another view of part of the listing above.
GGUACAUUUUAUACUGGAGTT against Zfp277
  z-score: inactive: 0.163
GGGAGUAGCUCUAUUCAGATT against 2610044O15Rik8
  z-score: inactive: -0.775
GGGACACGAACUCUCCAAUTT against Ywhab
  z-score: inactive: 0.441
CCUGAUACCCAAAGACUCATT against Dnaic1
  z-score: inactive: -1.38

Next entries.

| Sequence | z-score |
| --- | --- |
| GGGAAGAAAAUAUGGAAAATT against Irf9 | inactive: -0.415 |
| ACAUUUAUCACGACCCUUCTT against Olfr777 | inactive: 1.3 |
| GGAUGUGGAAGAAUUUCUGTT against Mrpl49 | inactive: 0.289 |
| GGAAGUGAUCCGAAAAUCATT against Mbd2 | inactive: 1.36 |
| GGAAACCAGAACAUCACUUTT against Olfr829 | inactive: -1.02 |
| GGAUCAUCUAUACAGCACATT against Tgfb1i1 | inactive: -1.85 |
| GCCUCUUCAUGUCAGUCCCTT against Capn12 | inactive: 1.92 |
| GGUCAGAAAAACAACCACGTT against Phxr5 | inactive: -1.59 |
| GGCUGAAUUUUGUGACUAUTT against Il18r1 | inactive: -1.86 |
| GGAACACCAACCAGAAUAATT against Serpina3n | inactive: -0.994 |
| GCCAACUCAGUUUUGAAUGTT against Lyrm1 | inactive: 0.831 |
| GGAAACCACUUGAUCAGCATT against Ube4a | inactive: -1.48 |
| GGACAUCCUCAAGCUUCAUTT against Cib2 | inactive: -1.71 |
| GGCUUCAGCAGAAAACUUCTT against Ola1 | inactive: 0.529 |
| GGAGGAGCUCCUAAAGUGUTT against Bcat1 | inactive: -1.03 |
| GGGUUGUGCCUCACAGAUUTT against Olfr976 | inactive: 0.684 |
| CCACUACAAUGUAGCGACGTT against C1qtnf9 | active: -2.24 |
| GGACCAAGCAAGAAGGUGGTT against Tatdn2 | inactive: -0.619 |
| CCCUGAAAAUUAUCGAGCGTT against Galnt18 | inactive: -0.493 |
| GCUAAUGCUAGGUGUGAAATT against Caskin2 | inactive: -0.219 |
| GCCUAACAUUAACAUGUAATT against Srrm4 | inactive: -0.714 |
| GGGUGCAGUGGAGUCUAUUTT against Smc1a | inactive: -1.31 |

| Sequence | z-score |
| --- | --- |
| GGAUCAAAACUUAAAUGGUTT against Lancl1 | inactive: -0.0547 |
| GGAAGACGUAAUAAAGUUATT against Iqcc | inactive: -0.785 |
| GGUCAGAAGAAAAGACAAATT against Gpatch4 | inactive: 0.5 |
| GGACAUUUCUAUGUCUUUGTT against Cpt2 | active: 3.35 |
| GCUGCUAAAGAGCAUUUUGTT against Fkbp11 | inactive: 0.131 |
| GGAUGAGGUGAUUAAAGAATT against Cd9 | active: 2.38 |
| GGCUUCUUGAGGAGAAAGATT against Trak1 | inactive: -0.0918 |
| GGCUGUGGAAGUGCAGAACTT against Dnmt3a | active: -2.53 |
| CGCAUCUCUAUCCACACUUTT against Dnal1 | inactive: 0.63 |
| GGCCAAGAGCAACUCACUGTT against BC048671 | inactive: 0.202 |
| CCUAAUUGUCCUUCACAUGTT against Pfkfb2 | inactive: 1.4 |
| GCAGUUGCGUUCUAUUGAATT against Ccdc86 | inactive: 0.179 |
| GACUUCUCUAGUCUGCCGGTT against Ankrd33b | inactive: 1.91 |
| GCGAUUUCACACCAUCACATT against Rab10 | inactive: -1.03 |
| GCAAUUCAUCAGGAGCAGGTT against Rab8b | inactive: 1.78 |
| GGAUGAACAACUCUAGGCCTT against Mafk | inactive: -0.736 |
| GGAAUACAUCGAAAUCAACTT against Gstt4 | inactive: -1.23 |
| GGAUUAUCAGAAGUGUGUCTT against Mrps35 | inactive: -0.117 |
| GCUACUUCAGCUAUUGAGGTT against Cd200r1 | inactive: -0.105 |
